Hit rate of the full screen: of about 360,000 compounds, about 9,100 (2.5%) were called active. The inconclusive results got no clear call from the source; some entries with a clear call stand among them for comparison. Rule as the data show it: active = max response below about -50%; inconclusive = no clear call, values can overlap the other calls; inactive = above that. Where a structure was tested more than once in an assay, its records may differ in their call.
Target: D(3) dopamine receptor (Homo sapiens) (UniProt P35462)
Assay: qHTS of D3 Dopamine Receptor Antagonist: qHTS
Conditions: D3R cells, DiscoveRx beta-arrestin luminescence, antagonist mode; stronger effect = lower value
Method in brief: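 Cells plated overnight at 1500 cells/well, then exposed to library compounds with dopamine controls for 90 minutes at 37 degrees C. DiscoveRx reagent added for 30–60 minutes at room temperature; luminescence read, quantitative HTS format.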
% is scaled to controls: 0 for no effect and ±100 for the full control effect.

Chains of the proteins cited; added tags and fusions are not shown.
UniProt P35462, whole entry, looked up: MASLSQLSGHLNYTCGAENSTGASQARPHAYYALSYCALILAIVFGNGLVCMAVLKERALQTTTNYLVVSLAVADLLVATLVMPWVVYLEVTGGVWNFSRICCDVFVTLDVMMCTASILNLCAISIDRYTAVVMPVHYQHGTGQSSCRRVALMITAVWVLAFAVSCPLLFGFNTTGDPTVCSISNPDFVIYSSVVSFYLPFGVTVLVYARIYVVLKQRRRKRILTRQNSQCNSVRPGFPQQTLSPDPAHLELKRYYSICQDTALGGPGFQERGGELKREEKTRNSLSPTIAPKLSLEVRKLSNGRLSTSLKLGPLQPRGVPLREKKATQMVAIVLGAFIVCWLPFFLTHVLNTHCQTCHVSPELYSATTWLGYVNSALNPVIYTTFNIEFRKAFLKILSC

| SMILES | max response, negative = inhibition |
| --- | --- |
| CCNC(=S)Nc1ccc2c(c1)oc1ccccc12 | inactive: 1.58% |
| CN(C(=O)c1cccc(NC(=O)Cc2ccc(NC(=O)C3CCCN(C(=O)C4CCC4)C3)cc2)c1)C1CCCC1 (centres undefined) | inactive: -12.4% |
| COc1cc(OC)c2c(C)cc(=O)oc2c1C(CCN1CCOCC1)c1ccc2c(c1)OCO2 (centres undefined) | active: -69.3% |
| Cc1cc(C)cc(C(O)c2ncc(-c3ccc(C(F)(F)F)cc3)[nH]2)c1 (centres undefined) | inactive: 0% |
| CC(=NNc1nc2ccccc2s1)c1ccncn1 | active: -57.4% |
| Cc1ccc2c(CN(Cc3ccccc3)Cc3ccccc3)cc(=O)oc2c1 | inconclusive: -38.2% |
| Cc1cc(C)n(CCCNCC(O)c2ccccc2)n1 (centres undefined) | active: -64.2% |
| CCOC(=O)/C=C/S(=O)(=O)c1ccc(NC(C)=O)cc1 | active: -75.8% |
| NC(=S)c1ccc(C(N)=S)o1 | inconclusive: -31.8% |
| CN1CCN(C2CN(Cc3ccc(F)cc3)S(=O)(=O)C2)CC1 (centres undefined) | inactive: 4.85% |
| O=C(CNc1cccc([N+](=O)[O-])c1)NC(=O)NC1CCCCC1 | inconclusive: -41.7% |
| O/N=C1/CCc2cccc3cccc1c23 | inactive: 8.17% |
| c1ccc(-c2c(-c3ccccc3)n(Cc3ccco3)c3ncnc(NCCCn4ccnc4)c23)cc1 | active: -95.2% |
| COC(=O)C1C(c2ccccc2)C(C(=O)N2CCN(C)CC2)C1c1ccccc1 (centres undefined) | inconclusive: -32.4% |
| O=C(Cc1c(F)cccc1Cl)NC1CCN(Cc2ccccc2)CC1 | inconclusive: -47.4% |
| CCNCCNC(=O)c1c(O)c2cccc3c2n(c1=O)CCC3 | inconclusive: -49.8% |
| O=C(NC(c1ccc2ccccc2n1)c1cccs1)C1CCN(Cc2cccc(C(F)(F)F)c2)CC1 (centres undefined) | inconclusive: -49.8% |
| CC(=O)C(=Cc1ccc(-c2ccccc2)cc1)C(=O)c1ccccc1 | active: -53.1% |
| O=C(COC(=O)CCCN=C1NS(=O)(=O)c2ccccc21)NNC(=O)c1ccccc1 | inconclusive: -40.2% |
| CC(=O)c1cc(CN2CCN(C3CCCCC3)C(CCO)C2)cs1 (centres undefined) | inactive: -12% |
| CN(CCOCCOc1ccc(F)cc1)Cc1ccccc1 | active: -89.4% |
| COCC(N)(c1ccccc1)c1nc2ccccc2n1C (centres undefined) | active: -88.9% |

Reformatted tab-delimited: two of the compounds above.
SMILES	max response, negative = inhibition
CCNCCNC(=O)c1c(O)c2cccc3c2n(c1=O)CCC3	inconclusive: -49.8%
CN(CCOCCOc1ccc(F)cc1)Cc1ccccc1	active: -89.4%

Two entries from above, with tabs.
SMILES	max response, negative = inhibition
Cc1ccc2c(CN(Cc3ccccc3)Cc3ccccc3)cc(=O)oc2c1	inconclusive: -38.2%
Cc1cc(C)n(CCCNCC(O)c2ccccc2)n1 (centres undefined)	active: -64.2%

(further entries)

| SMILES | max response, negative = inhibition |
| --- | --- |
| COc1ccc2cc(CN(CC3CCCO3)C(=O)Nc3ccccc3OC)c(=O)[nH]c2c1 (centres undefined) | inconclusive: -30.8% |
| COc1cccc(OCC(O)CN2CCN(c3ccc(F)cc3)CC2)c1 (centres undefined) | inconclusive: -44.6% |
| O=C(Nc1cccc(-n2cccn2)c1)C1CCCN(Cc2cccc(F)c2F)C1 (centres undefined) | inconclusive: -31.4% |
| Cc1noc2ncnc(Sc3ccccc3Cl)c12 | inconclusive: -42.7% |
| CC(=O)Nc1cccc(C(=O)/C=C/c2ccco2)c1 | inconclusive: -36.2% |
| O=C(Nc1ccc2c3c(cccc13)CC2)c1ccco1 | inconclusive: -33.5% |
| CCCNC(=O)c1cc(C2CCCN(S(=O)(=O)c3ccccc3)C2)on1 (centres undefined) | inconclusive: -33% |
| CC1CCCC(C)N1CCCNC(=O)c1cc2c(s1)-c1ccccc1OC2 (centres undefined) | inconclusive: -35.4% |
| CCc1ccc(C2C(C#N)=C(N)SC(N)=C2C#N)s1 | inactive: 13.1% |
| CCN(C(=O)COC(=O)c1ccc2ccccc2n1)c1c(N)n(Cc2ccccc2)c(=O)[nH]c1=O | inactive: -1.21% |
| O=C(CC1Sc2ccccc2NC1=O)NNc1ccc(F)cc1 (centres undefined) | inconclusive: -31.9% |
| O=C(CNC(=O)c1ccc(Br)cc1)c1ccccc1 | inconclusive: -30.9% |
| Cc1cc(N2CCC(C)CC2)nc(-n2nc(C)cc2C)n1 | inconclusive: -37.4% |
| CC1CCN(CC(O)CN2c3ccccc3Sc3ccccc32)CC1 (centres undefined) | active: -103% |
| COc1ccc(-c2nc3cc(C)c(Br)c(C)n3c2Cc2ccccc2)cc1OC | inconclusive: -34.9% |
| O=c1c2c([N+](=O)[O-])cc([N+](=O)[O-])cc2nc2ccccn12 | inconclusive: -35.1% |
| O=C(O)c1cnccn1 | inconclusive: -41.4% |
| CCO/C=C1\SC(=S)N(c2ccc(Cl)cc2)C1=O | inconclusive: -32.2% |
| Cc1ccccc1CC1(CO)CCCN(Cc2nc(-c3cccs3)oc2C)C1 (centres undefined) | active: -104% |
| Nc1nc2n(n1)C(c1ccc(F)cc1)CC(c1ccc(F)cc1)N2 (centres undefined) | inconclusive: -43.9% |
| COc1cc2c(C(=O)NCCCN3CCN(c4cccc(Cl)c4)CC3)cn(C)c(=O)c2cc1OC | active: -56.1% |
| COc1ccccc1C(=O)NCC(=O)OCc1csc(-c2ccccc2)n1 | inconclusive: -47.6% |
